Assay results reported in US5032576A, “Method for controlling female moths using a peptide” (The United States of America as represented by the …, priority 1989, dated 1991).
Part of at least one peptide drawing is inferred or uncertain, most often the ends. Where a SMILES comes first, the peptide text is derived from it. [ ]: non-standard residue; d: D form. Met(O) = CS(=O)CC[C@H](N)C(=O)O

System: ligated H. zea females
Assay: Pheromone production bioassay: injection into ligated H. zea females
Type: in vivo, Heliothis zea
Details: injected into ligated females

SMILES: CC[C@H](C)[C@H](NC(=O)[C@H](CCC(N)=O)NC(=O)[C@H](CCC(=O)O)NC(=O)[C@@H]1CCCN1C(=O)[C@H](CC(=O)O)NC(=O)[C@H](CCC(N)=O)NC(=O)[C@H](CCCNC(=N)N)NC(=O)[C@H](Cc1ccc(O)cc1)NC(=O)[C@H](CC[S+](C)[O-])NC(=O)[C@H](CCC(=O)O)NC(=O)[C@H](CCC(N)=O)NC(=O)[C@H](CC(=O)O)NC(=O)[C@H](C)NC(=O)[C@@H]1CCCN1C(=O)[C@@H](NC(=O)[C@H](C)NC(=O)[C@@H]1CCCN1C(=O)[C@H](CC[S+](C)[O-])NC(=O)[C@H](CC(=O)O)NC(=O)[C@H](CC(=O)O)NC(=O)[C@H](CO)NC(=O)[C@@H](N)CC(C)C)[C@@H](C)O)C(=O)N[C@@H](CC(=O)O)C(=O)N[C@@H](CO)C(=O)N[C@@H](CCCNC(=N)N)C(=O)N[C@H](C(=O)N[C@@H](CCCCN)C(=O)N[C@@H](Cc1ccc(O)cc1)C(=O)N[C@@H](Cc1ccccc1)C(=O)N[C@@H](CO)C(=O)N1CCC[C@H]1C(=O)N[C@@H](CCCNC(=N)N)C(=O)N[C@@H](CC(C)C)C(N)=O)[C@@H](C)O (stereo partly drawn) [Compound 2] (H-LSDD[Met(O)]PATPADQE[Met(O)]YRQDPEQIDSRTKYFSPRL-NH2)
- ng/Female H. zea (Z)-11-Hexadecenal (Dose 1.0 pMole): 6.9 ng/Female
- ng/Female H. zea (Z)-11-Hexadecenal (Dose 10.0 pMole): 108.0 ng/Female
- ng/Female H. zea (Z)-11-Hexadecenal (Dose 100.0 pMole): 136.2 ng/Female
